# Primary screen of a compound library

The values are deposited in ChEMBL (CHEMBL3988442, “University of Dundee, Small-Polar-MMV Screening Library” (2021)).

Results are given as percent effect. The controls that fix the scale are not given in the record; negative values are as filed. Compounds were drawn at random from those tested, without regard to their results.

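Whole-cell assay for inhibitors of Mycobacterium tuberculosis growth, labelled Cornell in the record; the read-out is not stated. The concentration is filed as 10 mM, unlikely as a test dose, so the dose is not known. The record gives no direction; compounds strong in two other growth screens of this library score well above the rest, so higher reads as stronger inhibition. Size under these conditions: about 53,000 compounds, about 900 of them at 50% or above in at least one test.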

COc1ccc(C(=O)Nc2nncs2)cn1 read -9.346%. For COc1c(CNC2CCN(C(=O)C3CC3)CC2)c(C(C)C)nn1C the result was 12%. Result for CCn1cc(S(=O)(=O)N2CCN(S(=O)(=O)c3ccc(Br)s3)CC2)c(C)n1 was -68.01%. For [H][C@@]12CN(Cc3ccsc3)C[C@]1([H])N(Cc1ccccn1)C(=O)O2 the result was -1.969%.

For COc1cccc(C(O)CNC(=O)CC2CCCCC2)c1 (stereo not given) the result was 8.962%. With COc1ccc(-c2nc3c([nH]2)CCNC3C(=O)O)c2ccccc12 (stereo not given) the screen gave 35.56%. CC(CNC(=O)c1ccn(-c2ccc(F)cc2)n1)Cn1cccn1 (stereo not given) read 13.5%. For Cc1cnn(C2CCCN(C(=O)CCCc3ccccn3)C2)c1 (stereo not given) the result was 2.711%.

For O=C(O)C(F)(F)F.O=C(O)C(F)(F)F.[H][C@@]12CN(Cc3nccs3)CCC[C@]1(C(=O)OCC)CN(C(C)C)C2 the result was -30.11%. For O=C(c1cccnc1)N1CCCC1c1nc(O)cc(-c2ccccn2)n1 (stereo not given) the result was 10.2%. Result for O=C(O)C(F)(F)F.O=C(O)C(F)(F)F.O=C(c1cccnc1)N1CCn2cc(CN3CCCC3)nc2C1 was 29.38%. Result for Cc1cc(C)cc(CN2CCC3(CC2)CC(Nc2ncccn2)CO3)c1.O=C(O)C(F)(F)F (stereo not given) was 20.35%.

With Cc1ccc(C(C(=O)NCCN2CCC(CO)CC2)N(C)C)cc1 (stereo not given) the screen gave -16.25%. CNCCc1nc2cc(F)ccc2[nH]1.Cl.Cl read -17.12%. COCCC(=O)N1CCC2(CCN(Cc3cccc(F)c3)C2)C1 (stereo not given) gave -27.26%. Result for CCCNC(=O)CN1CCC(C(=O)Nc2cnn(CC)c2)CC1 was 17.74%.

With O=C(O)c1ccc2c(CN3CCCC3)c[nH]c2c1 the screen gave -4.329%. For CC(C(=O)O)n1nc(C(F)(F)F)c(Br)c1C1CC1 (stereo not given) the result was 27.13%. CN(C)C(=O)CN1CCCC1c1nccnc1Nc1ccccn1 (stereo not given) read -5.972%. For c1ccc(-c2nnc3sc(CCN4CCCCCC4)nn23)cc1 the result was 14.91%.

With Cc1ccc2c(c1)CCC2NC(=O)N1CCC(C(N)=O)CC1 (stereo not given) the screen gave -5.837%. [H][C@@]12C[C@H](c3nc(C)no3)O[C@]1([H])CCN(C(=O)Cc1ccsc1)C2 gave 16.03%. CCN(CC)Cc1ccc(C(=O)N2CCN(CC(C)O)CC2)cc1 (stereo not given) gave 1.896%. CC(C)c1cc(C2CCN(C(=O)Cn3cnc4ccccc43)CC2)[nH]n1 gave -9.025%.

O=c1c(NCCc2ccc(O)cc2)c(NCc2ccncc2)c1=O read -7.722%. Result for CC(=O)c1cccc(C(=O)N2C[C@@H](CN3CCCCCC3)[C@@H](CO)C2)c1 was -1.656%. With Cc1ccc2c(c1)N(C(=O)c1cc[nH]c(=O)c1)CC(C)O2 (stereo not given) the screen gave 21.95%. With CCc1ncc2c(n1)CN(Cc1nc(-c3ccoc3)no1)CC2 the screen gave 23.37%.

Cc1ccc(CCc2nc(C3CCOC3)no2)o1 (stereo not given) gave -8.463%. CCOc1ncccc1CNC(=O)N1CCCC1c1cccs1 (stereo not given) gave 14.29%. For CC(=O)NC1CCCN(C(=O)NCc2ccc(-c3ccn[nH]3)cc2)C1 (stereo not given) the result was 17.42%. With CCc1noc(C)c1C(=O)N1CCCCC1Cn1cc(C)cn1 (stereo not given) the screen gave -48.85%.

With O=C(COCC(=O)N(c1ccccc1)c1ccccc1)N1CCCCC1 the screen gave -12.66%. For Cc1ccsc1C(=O)N1CC(C(=O)N2CCOCC2)C2(CCOCC2)C1 (stereo not given) the result was -4.623%. CN(C)c1ccc(CC(=O)N[C@@H]2CCNC[C@H]2O)cc1 read 15.31%. Cn1cnc2c1CCN(Cc1cccc(OCC(N)=O)c1)C2 gave 4.149%.

For N#CC1COCCN1C(=O)c1cccc2cc[nH]c12 (stereo not given) the result was 15.8%.

Some entries from above, unchanged:

| structure | effect |
|---|---|
| `CCN(CC)Cc1ccc(C(=O)N2CCN(CC(C)O)CC2)cc1` (stereo not given) | 1.896% |
| `CC(=O)NC1CCCN(C(=O)NCc2ccc(-c3ccn[nH]3)cc2)C1` (stereo not given) | 17.42% |
| `O=C(O)C(F)(F)F.O=C(O)C(F)(F)F.[H][C@@]12CN(Cc3nccs3)CCC[C@]1(C(=O)OCC)CN(C(C)C)C2` | -30.11% |